Test results from patent US10011568B2, “Cyclohexyl pyridine derivative” (priority 2014, dated 2018).
For at least one compound, name, drawing or mass did not settle the structure.

The chains behind the UniProt entries cited, without tags or fusion partners.
UniProt Q5DUB1, whole entry: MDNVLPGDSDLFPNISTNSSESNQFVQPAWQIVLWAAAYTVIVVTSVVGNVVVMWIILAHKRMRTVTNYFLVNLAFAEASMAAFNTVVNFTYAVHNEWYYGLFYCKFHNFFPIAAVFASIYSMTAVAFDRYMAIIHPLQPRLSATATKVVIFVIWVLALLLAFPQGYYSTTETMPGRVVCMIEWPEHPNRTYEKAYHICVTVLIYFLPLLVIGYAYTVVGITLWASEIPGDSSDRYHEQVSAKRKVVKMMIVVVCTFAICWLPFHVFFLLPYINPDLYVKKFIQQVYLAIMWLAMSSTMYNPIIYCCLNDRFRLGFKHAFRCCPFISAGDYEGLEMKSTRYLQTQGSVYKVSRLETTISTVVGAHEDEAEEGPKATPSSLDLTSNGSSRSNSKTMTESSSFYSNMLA

Molecular target: NK1 receptor (Meriones unguiculatus (Mongolian jird) (Gerbillus unguiculatus), UniProt Q5DUB1)
Experiment: Effect on foot-tapping induced by NK1 receptor agonist GR73632
Format: in vivo
Settings: male gerbil, 0.1 mg/kg iv, GR73632 after four hours
Procedure: (1) Effect on Foot-Tapping
The test compound solution was prepared by dissolving the test compound in a vehicle (a mixture of 50% N,N-dimethylacetamide (Wako Pure Chemical Industries), 30% propylene glycol (Wako Pure Chemical Industries). 4% 2-hydroxypropyl-β-cyclodextrin (Wako Pure Chemical Industries) and 16% distilled water).
A male gerbil (Japan SLC) was anesthetized with isoflurane, and 0.1 mg/kg of a test compound was administered from the jugular vein. After four hours. GR73632 (5 pmol/5 μl saline), which is an NK1 receptor agonist, was administered into the cerebral ventricle at the part 1 mm lateral to and 4.5 mm below the bregma in the head, under anesthesia with isoflurane. After the administration, the gerbil was moved to an observation cage, and the foot-tapping period during 30 minutes after the recovery of the righting reflex was measured. The foot-tapping inhibition rate (%) of each test compound was calculated by the following equation. Foot-tapping inhibition rate (%)−{1−(Fool-tapping period when test compound was administered)/(Foot-tapping period when solvent was administered)}×100 (2) Measurement of Drug Concentrations
In the table, Ex. No. means the Example number. Inhibition (%) is the loot-tapping inhibition rate, and Cone. (nM) is the drug concentration in the brain.

Cc1cc(F)ccc1-c1cc(C2CCC(CCC(=O)O)CC2)ncc1N(C)C(=O)C(C)(C)c1cc(C(F)(F)F)cc(C(F)(F)F)c1 (stereo not shown) [Example 2, 3-{4-[5-{[2-(3,5-Bistrifluoromethylphenyl)-2-methylpropionyl]methylamino}-4-(4-fluoro-2-methylphenyl)pyridin-2-yl]cyclohexyl}propionic Acid]
Inhibition (%), foot-tapping inhibition rate: 100%
